According to the supplement of paper PMC3334620:
Whole data set: some 33,000 sequences, median “E-score (-0.5 to 0.5)” near -0.0059, cut for the highest 2% near 0.26. Some of the results follow.

Target: T1, Cin5 (UniProt P40917)
T1 sequence: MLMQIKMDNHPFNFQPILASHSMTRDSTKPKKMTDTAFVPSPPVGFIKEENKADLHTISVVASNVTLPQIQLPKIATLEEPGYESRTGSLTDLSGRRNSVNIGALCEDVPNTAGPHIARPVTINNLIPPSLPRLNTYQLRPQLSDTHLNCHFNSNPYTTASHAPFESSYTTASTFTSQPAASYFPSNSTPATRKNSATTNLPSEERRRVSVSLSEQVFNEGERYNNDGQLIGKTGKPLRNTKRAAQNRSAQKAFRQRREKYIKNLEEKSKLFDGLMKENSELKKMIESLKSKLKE
Experiment: PBM E-score (8-mer binding enrichment) (E-score (-0.5 to 0.5)); higher = stronger / more preferred TF binding
Details: protein concentration: 100 nM; construct: GST-full length
In short: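 The E-score, a modified Wilcoxon-Mann-Whitney statistic, was computed by the Universal PBM Analysis Suite for every ungapped eight-base word pooled with its reverse complement. Scans behind it were normalised with masliner after bound GST-tagged yeast transcription factors were detected with fluorescent anti-GST. The proteins, at about 100-200 nM, had been applied to universal all-10-mer Agilent arrays made double-stranded by primer extension.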

Sequence | PBM E-score
GATGCAGA | 0.118
CTAACGAG | 0.0251
CCTGAACG | -0.107
CCAACCGA | 0.177
AGGCCCCA | -0.138
AGCTCACA | -0.0223
CACTAGAC | -0.062
ACTGCTAA | -0.0789
ATAGTGCA | 0.029
GGATCCTA | -0.0459
AGCTTTAT | -0.0954
ATTTCCAA | -0.0562
GACATTGA | 0.126
AAATAGCA | 0.0744
CTCGCGGA | 0.024
CCATCCAG | -0.135
AGCCATGC | -0.0545
AGATGGGG | -0.0629
AACTTAGA | 0.105
ACGAGCGT | -0.197
CGTCTGGA | -0.345
AGGGGAAT | 0.0631
GGAAGCAC | -0.124
CATATCCC | 0.122
CGACTCAC | -0.212

Sequence | PBM E-score
CTTAGAGA | -0.0314
CTAGAGAA | 0.0802
CGCAAAAG | -0.103
TATTGCAA | 0.212
CGTACCTA | -0.0475
CAAAAGAC | 0.0282
AGAATCGG | -0.0541
CAAGGCCC | -0.212
ACTATATG | 0.117
TTAGTGAA | 0.0467
GAGGATGC | -0.0952
GATGCCCA | 0.0818
TACCAGGA | 0.128
AACCTCAG | -0.0196
AAGCAAGG | -0.0167
ATGTAGCA | 0.0135
TAAAGTCA | 0.157
CACCCTAC | 0.0139
CTGGCGCC | 0.052
CGTGATCC | 0.0158
CTGAGCTC | 0.0124
CCCTAAAG | -0.27
CGGGGAGA | -0.131
CTCGCTCA | 0.056
GCATATAA | 0.135

Sequence | PBM E-score
CTGCCTTA | -0.109
ATCGGATA | 0.213
CACATTGC | 0.13
CTTCATTC | 0.0795
ATATCTGG | 0.0244
ACTACGAC | -0.0576
CTCCGCAG | -0.0786
CGTAGAAG | 0.00718
GGTTTGAC | -0.177
ATACGTGG | -0.0468
TAAATCCA | 0.128
GTCCCCTA | -0.133
CATACGAA | 0.129
CTTCCCGC | 0.107
AGTGAACT | 0.035
AATAAATC | 0.0611
CCTAATCC | 0.029
AAAAGGCG | -0.125
GATAAGGC | -0.138
GAGTTGAA | 0.0453
CGAAGGCC | -0.261
AGAGCGGG | -0.116
ACCCATCA | 0.0871
AGGGCCCA | -0.179
AACTGGCT | -0.159

Sequence | PBM E-score
ATCGGTGG | -0.16
ATCCGATG | 0.13
CAGAGCAC | -0.123
GGGGGCAC | -0.382
GATCTGGC | -0.0261
CGCACGCG | -0.103
GAATGGGC | 0.0258
ACTAAAGG | -0.13
ATTCACAA | 0.241
CCCCTTCC | -0.231
AAGGAGAC | -0.22
CGCGTTTA | 0.0808
AGGTAGCA | -0.15
CGAAGCCG | -0.0662
ACATGCTA | -0.0909
GGTAATAA | 0.249
AGCAATAT | 0.157
AGAGTCAA | -0.118
CTAATTAC | 0.24
ATGTACGG | 0.0858
CTTGTGGA | 0.0287
CATGGGAA | 0.0348
GATGGTAA | -0.0229
CGACGTCG | -0.0048
GACAGAGA | -0.033

Sequence | PBM E-score
GATTATCA | 0.201
AGTTGGCG | -0.0813
CGAAGTCG | 0.147
ACCATAGG | -0.251
GAGTTAGA | -0.13
AATAAAAA | 0.21
ACCCATTA | 0.0824
GCGTATCC | -0.217
GTGCTTGA | -0.0478
CCCACGCG | -0.146
CGAACACG | -0.0466
CAAGTGTG | 0.0228
AAGGGGCT | -0.0619
CCGATGCG | -0.0501
GGCTTGGA | -0.18
CGGTACGA | -0.14
AGTCGTAT | -0.0467
CTTAAATA | 0.0164
CGACCCTA | -0.148
GGTGACCA | -0.182
ACTCCCCG | 0.121
AATTGCCG | -0.0809
GGCGGACA | -0.112
GCCAGTTA | 0.0154
CTCTAGGC | -0.126

Sequence | PBM E-score
CCGGACGG | -0.202
GGAGACCA | -0.162
CCCTGCTC | -0.23
CTGCGTGC | -0.0801
CTTTACCC | -0.185
AGGGTGAA | -0.137
CATATTCA | 0.129
CGGCATGA | 0.123
CGCCCTTA | -0.0701
CACTGATC | 0.0106
CCTGAAAC | -0.0118
AGGCGCAC | -0.0161
CGAGTACC | 0.0635
CACTTCAA | -0.0898
AATGATAC | 0.251
GACGTCTA | -0.0507
ACAACCGG | -0.14
ATACTGTA | 0.224
CATTTGCC | -0.203
TTCTGAAA | 0.0212
AAACAACT | 0.139
CACCTCCC | -0.324
CGGTCAGC | 0.0507
AAATTAGC | 0.0331
GCCGAGCA | -0.174

Sequence | PBM E-score
GTATATCA | 0.0654
AAAGAGGA | -0.167
GGAGGTTA | -0.218
AGAAGGGA | -0.309
ACGGCCGC | -0.0289
GGAAGGGA | -0.191
CCGGATAA | 0.134
ATTTTTCG | 0.198
GGGTTCAA | -0.0708
CTCTCCCA | -0.186
GTTGGAGA | -0.0966
ACGGCAGG | -0.248
ATTTACTA | 0.161
GTATATGA | 0.111
CTATTGTC | 0.0269
ACGGGAAT | -0.104
ACCAAGTA | 0.119
GATGGAAA | 0.0371
TCCTCTCA | -0.0672
GTTGTGAA | 0.0473
GGGTCTAA | -0.109
GTCGGGTA | -0.0198
CTTAGATA | 0.23
ATACCGTA | 0.0493
ATGGCCAT | 0.0852

Sequence | PBM E-score
AATCGCCT | 0.124
CTGTTCGC | 0.0508
GTTACTAA | 0.168
GCCCACCC | 0.191
CTGGGGTA | -0.0795
GGCCTACA | -0.0994
CCGTACAG | -0.169
CGGGGAAC | -0.0378
AAAATCGC | 0.0818
CCAAACTC | 0.112
AACGCTCG | -0.0334
GATGGGGC | -0.041
ACCCGCGC | 0.2
CGACCTAC | -0.23
AACAATCA | 0.167
CAATCACA | 0.0639
ATGAATTC | 0.175
AAACCCAA | 0.223
ATCATAGG | -0.0596
TGTGTAAA | 0.0976
ACCGTAGT | -0.125
CACTTTCC | 0.14
ACCCGAAG | -0.094
GCGTTAGC | -0.0129
GAGACGAC | -0.188

Sequence | PBM E-score
CAAATTAC | 0.107
CTTAGGAA | 0.0323
AGGTGTCA | 0.0947
TGTTCAAA | 0.0813
GGGTGCGA | -0.101
CCATACAA | 0.11
AAAAATCA | 0.164
GTTCAGGA | -0.0216
CCGAAAAA | 0.106
TCAACTAA | 0.136
GACGTTAA | 0.14
AGAGTAAC | -0.064
ACGATAGG | -0.091
GTCTGGCA | -0.182
AACTTAGG | 0.0035
GCTAGAGA | 0.0134
GAGATGAA | -0.045
AAAATAGG | 0.192
CCGGCGCC | -0.0319

Looked up one by one from the entries so far:
Sequence | PBM E-score
CCATACAA | 0.11
AACTTAGG | 0.0035
CCGAAAAA | 0.106
CTTAGGAA | 0.0323
ACGATAGG | -0.091
GTCTGGCA | -0.182

Individual results from above:
PBM E-score with AAAATAGG reads 0.192
PBM E-score with CCGAAAAA reads 0.106
PBM E-score with GAGATGAA reads -0.045
PBM E-score with ACGATAGG reads -0.091
